Amino acid sequences for entries named in this document (tags omitted). A change or cut given only in a name is not applied to a line headed by its entry.
UniProt O94782: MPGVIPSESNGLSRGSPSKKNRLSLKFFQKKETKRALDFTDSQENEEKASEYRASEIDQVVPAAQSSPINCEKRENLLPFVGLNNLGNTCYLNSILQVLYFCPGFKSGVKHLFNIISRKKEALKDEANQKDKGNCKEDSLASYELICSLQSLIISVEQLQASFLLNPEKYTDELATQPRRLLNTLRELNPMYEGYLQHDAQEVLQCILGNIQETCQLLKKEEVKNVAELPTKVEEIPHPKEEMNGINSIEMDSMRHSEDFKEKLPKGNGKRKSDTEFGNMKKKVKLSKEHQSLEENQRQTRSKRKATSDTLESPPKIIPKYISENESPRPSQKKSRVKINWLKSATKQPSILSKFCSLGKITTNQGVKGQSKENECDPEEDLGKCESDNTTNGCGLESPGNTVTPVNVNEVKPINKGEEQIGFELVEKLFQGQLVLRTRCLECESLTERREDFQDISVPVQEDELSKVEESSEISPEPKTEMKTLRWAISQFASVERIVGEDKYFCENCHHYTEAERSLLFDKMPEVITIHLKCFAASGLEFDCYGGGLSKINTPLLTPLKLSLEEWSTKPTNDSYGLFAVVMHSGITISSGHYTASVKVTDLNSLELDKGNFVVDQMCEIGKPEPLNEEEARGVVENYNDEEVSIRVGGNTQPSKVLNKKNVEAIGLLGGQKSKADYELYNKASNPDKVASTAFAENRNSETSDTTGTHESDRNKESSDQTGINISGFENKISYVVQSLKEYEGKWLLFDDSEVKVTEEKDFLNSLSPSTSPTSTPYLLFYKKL
UniProt P12644: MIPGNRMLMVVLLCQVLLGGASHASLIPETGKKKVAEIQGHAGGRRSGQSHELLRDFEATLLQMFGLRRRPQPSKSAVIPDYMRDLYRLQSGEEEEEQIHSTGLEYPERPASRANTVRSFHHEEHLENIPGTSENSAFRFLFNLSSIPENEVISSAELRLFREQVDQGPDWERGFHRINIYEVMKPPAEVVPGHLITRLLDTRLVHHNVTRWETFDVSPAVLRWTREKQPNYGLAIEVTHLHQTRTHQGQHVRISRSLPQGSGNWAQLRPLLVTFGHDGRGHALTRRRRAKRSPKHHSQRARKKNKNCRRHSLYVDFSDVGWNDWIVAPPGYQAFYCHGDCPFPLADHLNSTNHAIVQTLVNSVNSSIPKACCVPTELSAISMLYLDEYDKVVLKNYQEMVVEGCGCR

In publication PMC7545832:

Target: USP1-HA (UniProt O94782)
Test: co-IP; Co-IP in 293T cells: USP1-HA with TBLR1-Flag (reciprocal, tag antibodies) or with RAC1, SMAD4, BMP4 or PPP2R1

BMP4 (from UniProt P12644) was tested, and the binding was “no binding”.

Results are given in words; binding and its absence hold for the method and conditions named. In cells and extracts the contact can be indirect.
